{
  "source": "patent US20210145731A1",
  "about": "“MULTIMODAL COMPOSITIONS AND METHODS OF TREATMENT” (AQUESTIVE THERAPEUTICS, INC., priority 2019, published 2021)",
  "origin": "cited, not measured here",
  "key": {"seizure threshold": {"test_system": "seizure threshold", "details": "rats; Dhir and Rogawski 2018"}, "[1]": {"details": "delivered orally"}},
  "note": "Like-named read-outs stand apart in the source and are kept apart here.",
  "data": [
    {"smiles": "CN1C(=O)CN=C(c2ccccc2)c2cc(Cl)ccc21", "note": "[diazepam]", "values": [
      {"measurement": "plasma diazepam concentration associated with seizure threshold elevation", "setting": "seizure threshold", "value": "~70", "unit": "ng/mL"},
      {"measurement": "onset of absorption", "setting": "[1]", "value": "≤ 15", "unit": "min"},
      {"measurement": "Tmax", "setting": "[1]; after a moderate fat meal", "value": "2 to 3", "unit": "h"},
      {"measurement": "onset of absorption", "setting": "[1]; after a moderate fat meal", "value": "approximately 45 min"}
    ]}
  ]
}
